# Test results reported in PubChem BioAssay AID1259415 (National Center for Advancing Translational Sciences (NCATS), 2018).
# Screen size: about 410,000 compounds; about 18,000 (4.4%) were called active. The inconclusive results got no clear call from the source; some entries with a clear call stand among them for comparison. Cut-off read from the data, not from the text of the source: active = activity change below about -60%; inconclusive = no clear call, values can overlap the other calls; inactive = above about -39%.
# Assay: qHTS Assay for inhibitors of the human cytomegalovirus (HCMV)
# Settings: HFF cells, HCMV-luciferase reporter, 72 h; at 57.5 µM; hits give low values
# Method in brief: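 Screen run at 2 compound doses on HFFs infected with reporter HCMV, MOI 1 PFU/cell. Luciferase activity from cell lysates at 72 h post infection gave inhibition relative to buffer-only and Salinomycin wells.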
# % is set by controls: 0 for no effect and ±100 for the full control effect.
row,SMILES,"activity change, negative = inhibition"
1,CC1=C(C(=O)OCc2ccccc2)C(c2cccs2)NC(=O)N1CCCC(=O)O (configuration not stated),inconclusive: -53.8%
2,Cc1ccc(S(=O)(=O)N2[C@@H](c3ccccc3F)C(C(=O)O)=CC[C@H]2c2ccc3c(c2)OCO3)cc1,inactive: -22.6%
3,CN(C)c1cccc(C(=O)OCC(=O)N(C)c2ccccc2)c1,inconclusive: -40.5%
4,CCNC(=O)c1ccc(CSc2nc3cccnc3n2Cc2ccc(OC)cc2)cc1,inactive: 25%
5,O=c1cc(-c2ccco2)oc2ccccc12,inactive: -5.3%
6,Cc1cccc(CCNC(=O)C2CCCN(c3ncnc4c3nc3n4CCCCC3)C2)c1 (configuration not stated),inconclusive: -42.7%
7,CC(C)NC(=O)c1cnn2c1NC(c1cccs1)CC2C(F)(F)F (configuration not stated),inconclusive: -47%
8,CC(=O)c1ccc(OCC(O)CN2CCN(CCN3C(=O)c4cccc5cccc(c45)C3=O)CC2)cc1 (configuration not stated),active: -84.3%
9,CCc1ccc(-c2cc(C)no2)cc1S(=O)(=O)N1CCN(c2ccc(F)cc2)CC1,inconclusive: -40.8%
10,CCN1CCN(CCNC(=O)C2CCCN(Cc3nc(-c4cccc(Cl)c4)oc3C)C2)CC1 (configuration not stated),inconclusive: -47.9%
11,O=C(COC(=O)c1ccccc1C(=O)OCC(=O)NCCc1c[nH]c2ccccc12)NCCc1c[nH]c2ccccc12,inactive: 64.2%
12,Cc1cc(C)cc(N(C(=O)c2nsc(Cl)c2Cl)C(C(=O)NC2CCCC2)c2ccc(O)cc2)c1 (configuration not stated),active: -70.8%
13,COc1ccc(NC(=O)/C=C/c2c(Cl)nc3ccccn23)cc1,active: -61.8%
14,CC1(C)CC(=O)C=C(Nc2ccc(Cl)cc2)C1,inconclusive: -43.5%
15,CC(C)(NO)/C(=N\O)c1ccc(Cl)cc1,inactive: -1.12%
16,O=C(COC(=O)c1cccs1)Nc1ccccc1Cl,inconclusive: -51.6%
17,Cc1cc(Br)ccc1OCc1nnc(-c2ccccc2)o1,inactive: 95.8%
18,Cc1cc(C)cc(NC(=O)c2oc3ccc4c(c3c2C)C(=O)CC(C)(C)O4)c1,active: -105%
19,Fc1ccccc1COc1ccccc1CNCc1ccncc1,inconclusive: -43.6%
20,O=C(O)CNC(=O)C(CS)Cc1ccccc1 (configuration not stated),inconclusive: -51.3%
21,Cc1csc2ncnc(NC3CCN(Cc4ccccc4)CC3)c12,inconclusive: -57.9%

# Ordered by length of the SMILES (high to low): some entries from above
row,SMILES,"activity change, negative = inhibition"
10,CCN1CCN(CCNC(=O)C2CCCN(Cc3nc(-c4cccc(Cl)c4)oc3C)C2)CC1 (configuration not stated),inconclusive: -47.9%
16,O=C(COC(=O)c1cccs1)Nc1ccccc1Cl,inconclusive: -51.6%
20,O=C(O)CNC(=O)C(CS)Cc1ccccc1 (configuration not stated),inconclusive: -51.3%

# Next part.

row,SMILES,"activity change, negative = inhibition"
1,O=C1CCc2cc(S(=O)(=O)N3CCC(C(=O)NCCC4=CCCCC4)CC3)ccc2N1,active: -98.5%
2,Oc1ccc(C[C@H]2CNC(=S)N2C[C@H]2CCCN2C[C@H](Cc2ccccc2)N2C[C@H](Cc3ccc(O)cc3)N(CC3CCCCCC3)C2=S)cc1,inconclusive: -59.2%
3,CCOc1ccc(NC(=O)C2CCN(S(=O)(=O)c3c(C)noc3/C=C/c3c(C)cc(C)cc3C)CC2)cc1,inconclusive: -43.5%
4,COc1cc(CN2CCC(CO)(CCOc3ccccc3)CC2)cc(OC)c1,inconclusive: -52.1%
5,Cc1cc(C)c(C(=O)CN2C(=O)NC3(CCC(C)CC3)C2=O)cc1C (configuration not stated),inactive: 21.7%
6,COCC(C)N=C1NN=C(c2cc(C)n(Cc3ccccc3Cl)c2C)CS1 (configuration not stated),active: -79.1%
7,O=C(Nc1ccccc1)c1ccc(S(=O)(=O)N2CCCCC2)cc1,inconclusive: -47.7%
8,C=C1CC[C@@H]2[C@](C)(CO)[C@H](O)CC[C@@]2(C)[C@@H]1C/C=C1/C(=O)OCC1O (some centres not stated),active: -77.5%
9,Cc1cc(C)nc(OC(=O)c2ccc(Cl)cc2Cl)n1,active: -102%
10,CN1/C(=C\C(=O)CSc2nnc(NCc3ccccc3)s2)C(C)(C)c2ccccc21,inconclusive: -42.3%
11,CCC1CN(C(=O)NCc2ccccc2)c2cc(C)ccc2O1 (configuration not stated),inconclusive: -43.1%
12,Cc1nn(-c2ccccc2)c(Cl)c1C(=O)Nc1ccc(N2CCOCC2)cc1,inactive: 33.9%
13,CCC(C)n1c(C)cc(=O)n1C(C)CC (configuration not stated),inactive: -36.2%
14,O=c1[nH][nH]c2cc([N+](=O)[O-])ccc12,inactive: -7.9%
15,CS(=O)(=O)c1ccc(Cl)c(NC(=O)CNC(=O)c2ccc3c(c2)OCO3)c1,active: -61.3%
16,CCNC(=O)/C(C#N)=C/c1c(N(Cc2ccccc2)Cc2ccccc2)nc2ccccn2c1=O,inconclusive: -49.8%
17,CCOc1ccc(C(=O)c2cc([N+](=O)[O-])ccc2N2CCOCC2)cc1,active: -90.3%
18,O=S(=O)(c1ccccc1)c1nc(-c2ccc(Cl)cc2)oc1NCCCN1CCOCC1,inconclusive: -42.7%
19,Cc1cc(C)nc(SCC(=O)c2cc3ccccc3oc2=O)n1,inconclusive: -53.8%
20,O=c1cc(-c2ccccc2)[nH][nH]1,inactive: -5.94%
21,CN(C)CCCNC(=O)C[C@H]1C[C@H](C(=O)N2CCOCC2)[C@@]2(CCC3CCCC3)c3[nH]c4cc(-c5ccco5)ccc4c3CCN2C1=O,inconclusive: -55.4%
